Test results as given in article PMC3491036 (PLoS ONE, 2012).

Tested on: XA binding sites in the rat brain
Assay: [3H]-XA quantitative autoradiography on rat brain slices
Conditions: for Density of sites: 3 µM [3H]-XA

## O=C(O)c1cc(O)c2cccc(O)c2n1 [XA, Xanthurenic acid]
Accumbens nucleus lat. part
  Density of sites: 247.3±12.8 fmoles/mg equivalent tissue
Caudate nucleus lat. part
  Density of sites: 252.0±4.0 fmoles/mg equivalent tissue
Central amygdaloïd nucleus
  Density of sites: 249.4±5.6 fmoles/mg equivalent tissue
Cerebellar lobules
  Density of sites: 226.0±7.6 fmoles/mg equivalent tissue
Cingulate cortex ant. part
  Density of sites: 219.7±6.4 fmoles/mg equivalent tissue
Dorsal hippocampus
  Density of sites: 268.5±5.3 fmoles/mg equivalent tissue
Dorsal raphe nucleus (B7)
  Density of sites: 94.1±7.7 fmoles/mg equivalent tissue
Dorsomedial hypothalamus
  Density of sites: 220.7±9.5 fmoles/mg equivalent tissue
Globus pallidus
  Density of sites: 183.5±8.7 fmoles/mg equivalent tissue
Interpeduncular nucleus
  Density of sites: 106.8±2.2 fmoles/mg equivalent tissue
Lateral septal nucleus
  Density of sites: 208.9±7.2 fmoles/mg equivalent tissue
Medial septal nucleus
  Density of sites: 149.4±15.1 fmoles/mg equivalent tissue
Median raphe nucleus (B8)
  Density of sites: 70.6±2.2 fmoles/mg equivalent tissue
Mediodorsal thalamic nucleus
  Density of sites: 203.7±5.1 fmoles/mg equivalent tissue
Medulla oblongata
  Density of sites: 162.2±6.6 fmoles/mg equivalent tissue
Occipital cortex
  Density of sites: 160.0±37.8 fmoles/mg equivalent tissue
Olfactory tracts
  Density of sites: 221.2±10.6 fmoles/mg equivalent tissue
Parietal cortex
  Density of sites: 228.2±3.0 fmoles/mg equivalent tissue
Periacqueductal gray matter
  Density of sites: 94.1±5.2 fmoles/mg equivalent tissue
Post. medial thalamic nucleus
  Density of sites: 220.9±9.0 fmoles/mg equivalent tissue
Prefrontal cortex
  Density of sites: 219.7±14.0 fmoles/mg equivalent tissue
Pyriform cortex
  Density of sites: 233.5±11.9 fmoles/mg equivalent tissue
Substantia nigra (A9)
  Density of sites: 104.6±1.8 fmoles/mg equivalent tissue
Temporal cortex
  Density of sites: 82.4±6.8 fmoles/mg equivalent tissue
Ventral hippocampus
  Density of sites: 110.0±2.2 fmoles/mg equivalent tissue
Ventral tegmental area (A10)
  Density of sites: 89.8±5.6 fmoles/mg equivalent tissue
Dorsal hippocampus and caudate nucleus
  density of XA binding sites in the richest regions: about 250 fmoles of sites per mg tissue
